Measured values published in patent US20160024210A1 (AstraZeneca / MedImmune, published 2016).

Target: cynomolgus monkey H7CR (cynomolgus monkey)
Experiment: flow cytometry histograms of cynomolgus monkey blood cell subsets

binding | Binder
binds | hamster anti-human H7CR antibody clone 4.5 (antibody, V domains shown) VH: QIQLQESGPGLVKPSQSLSLTCSVTGFSITTGGYYWNWIRQFPGKKLEWMGYIYTSGRTSYNPSLKSRISITRDTSKNQFFLQLNSMTTEDTATYYCADMADKGGWFAYWGQGTLVTVSS VL: DIVMTQSPSSLAVSAGEKVTISCLSSQSLFSSNTKRNYLNWYLQKPGQSPKLLIYHASTRLTGVPGRFIGSGSGTDFTLTVSTVQAEDLGDYFCQQHYETPLTFGDGTRLEIK
binds | hamster anti-human H7CR antibody clone 7.8 (antibody, V domains shown, Hamster monoclonal antibody; also called H7CR7.8) VH: QIQLQESGPGLVKPSQSLSLTCSVTGFSITTGGYYWNWIRQFPGKKLEWMGYIYSSGRTSYNPSLKSRISITRDTSKNQFFLQLNSVTTEDTATYYCADMADKGGWFDYWGQGTLVTVSS VL: DIVMTQSPSSLTVSAGEKVTISCLSSQSLFSSNTNRNYLSWYLQRPGQSPKLLIYHASTRLTGVPGRFIGSGSGTDFTLTVSTVQAGDLGDYFCQQHYVTPLTFGDGTRLEIK

No constants are given. Whether binding was seen depends on the method and setting. Binding can be weak; no strength is given.
